Experimental data published in PubChem BioAssay AID1259354 (Paczesny and Yang Labs, IUPUI and University of Michigan, 2018).
About 1,800 (2.3%) of roughly 78,000 compounds were called active. The shares of active, inactive and inconclusive entries below differ from those in the screen. Cut-off read from the data, not from the text of the source: active = inhibition above about 30%; inconclusive = mostly about 10% to 28%; inactive = weaker than that.

Sequences of proteins named here, by UniProt entry; tags and fusion partners are left off. A change or cut given only in a name is not applied to a line headed by its entry.
UniProt Q01638: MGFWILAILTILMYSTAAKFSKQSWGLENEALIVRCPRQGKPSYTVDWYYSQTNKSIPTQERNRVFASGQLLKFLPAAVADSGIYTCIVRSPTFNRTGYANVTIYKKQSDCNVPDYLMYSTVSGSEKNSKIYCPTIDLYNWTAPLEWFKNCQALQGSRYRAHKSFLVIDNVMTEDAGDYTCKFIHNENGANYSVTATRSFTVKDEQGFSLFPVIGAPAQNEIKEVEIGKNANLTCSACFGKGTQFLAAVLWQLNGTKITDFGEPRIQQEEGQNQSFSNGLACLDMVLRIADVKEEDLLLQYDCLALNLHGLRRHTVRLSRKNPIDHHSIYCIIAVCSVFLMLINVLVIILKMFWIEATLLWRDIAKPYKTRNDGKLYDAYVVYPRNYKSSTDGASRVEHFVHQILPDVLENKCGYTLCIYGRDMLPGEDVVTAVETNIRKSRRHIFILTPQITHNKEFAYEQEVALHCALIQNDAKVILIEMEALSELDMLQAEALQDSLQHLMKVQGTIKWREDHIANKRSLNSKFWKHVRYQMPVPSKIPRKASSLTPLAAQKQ

Target: Interleukin-1 receptor-like 1 (Homo sapiens) (UniProt Q01638)
Assay: blocks human ST2 binding to IL-33, primary screen, biochemical, AlphaLISA (AID 1259354)
Settings: AlphaLISA ST2-Fc/biotin-IL-33 interaction, 1 h; at 17 µM, stronger effect = higher value

SMILES	inhibition
COc1cc(C(=O)Nc2ccc(Cl)cc2[N+](=O)[O-])cc(OC)c1OC	inconclusive: 14%
OC(COCc1ccc(Cl)cc1)CN1CCN(Cc2ccc3c(c2)OCO3)CC1 (stereo not given)	inconclusive: 10%
C=CCSc1nnc2c(n1)[nH]c1ccc(C)cc12	inconclusive: 22%
CC(c1cncs1)N(C)C(=O)c1cccc(CC2CCNCC2)c1 (stereo not given)	inconclusive: 11%
O=C1OC(NCc2cccnc2)(c2ccccc2)c2ccccc21 (stereo not given)	inactive
COc1cccc(-n2cc(C(=O)NC(C)C(=O)O)c3ccccc3c2=O)c1 (stereo not given)	inactive
Cc1cccc(C(=O)Nc2cccc([N+](=O)[O-])c2C)c1	inactive
O=[N+]([O-])c1cccc(N=Cc2nc(-c3ccccc3F)oc2O)c1	inconclusive: 17%
CSCCOC(=O)C1=C(C)NC(=O)NC1c1ccc(Br)cc1 (stereo not given)	inconclusive: 19%
CC(=O)N1C(=N)S/C(=C/c2cc3cccc(C)c3nc2N2CCCCC2)C1=O	inconclusive: 21%
O=C(CCn1cnc2ccccc2c1=O)NCc1cnn2ccccc12	inconclusive: 13%
CCOC(=O)C(C)Oc1ccc2oc(C)c(C(=O)OC)c2c1 (stereo not given)	inactive
CCS(=O)(=O)c1ccc2oc(=O)c(C=C(O)c3ccc(OC)c(OC)c3)nc2c1	inactive
CCc1nc(CN(C)C(=O)CSC)no1	inconclusive: 14%
C=C1C(=O)O[C@@H]2/C=C(\COC(C)=O)CC/C=C(\CO)CC[C@@H]12	inconclusive: 21%
COc1ccc(C)cc1Cn1c(S(C)(=O)=O)nc2ccccc21	inconclusive: 16%
COc1ccc2c(c1)c1ncn(C)c(=O)c1n2Cc1ccccc1	inconclusive: 22%
O=C(CCCn1c(=O)[nH]c2ccsc2c1=O)N1CC=C(c2ccccc2)CC1	inconclusive: 14%
CCn1c(-c2ccc(S(=O)(=O)N3CCCCC3)cc2)csc1=Nc1ccccc1OC	active: 61%
O=C(CCc1cn2ccccc2n1)NC1CCCN(CCc2ccccc2)C1 (stereo not given)	inconclusive: 11%
CCOC(=O)C1=NN(c2ccc(Cl)cc2)C2C(=O)N(c3ccccc3OC)C(=O)C12 (stereo not given)	inactive
CCC1=NOC(Cn2nc(CC3CCNCC3)n(-c3ccccc3)c2=O)C1 (stereo not given)	inconclusive: 13%
Cc1cccc(-n2ncc3c(N4CC(C)CC(C)C4)ncnc32)c1 (stereo not given)	inconclusive: 10%
COCCCn1ccnc1-c1ccc(-n2ccnc2)cc1	inactive

SMILES	inhibition
CCCc1cc(-c2cc(NC3CCNCC3)nc3[nH]ccc23)nc(C)n1	active: 38%
O=C(N/C(=C\c1ccc2c(c1)OCO2)C(=O)N1CCOCC1)c1ccco1	inactive
Cc1cccnc1CN(C)C(=O)c1cc(CC(C)C)nc(N)n1	inconclusive: 13%
COc1ccc(OC)c(C2CC(=O)N3CN(c4ccccc4F)CSC3=C2C#N)c1 (stereo not given)	inconclusive: 14%
Cc1cc(C)n(CCC(=O)NCCc2c[nH]c3ccccc23)c(=O)n1	inactive
O=C(CCCn1c(=O)c2sccc2n(Cc2cccc(F)c2)c1=O)NCc1ccco1	inconclusive: 10%
CC(C)Cc1nc(CS(C)(=O)=O)n(-c2ccc3c(c2)OCCO3)n1	inconclusive: 15%
COc1ccc(C2N(c3ccc(OC)c(Cl)c3)C(=O)C3CCCN32)cc1 (stereo not given)	inconclusive: 16%
Cc1nc2nc(CO)[nH]n2c(=O)c1Cc1ccccc1	inactive
CC1=CCC2CC1C(c1ccc(N(C)C)cc1)OC2(C)C (stereo not given)	active: 60%
CCSc1ncc(CN2CCN(c3nc(C)ncc3C)CC2)cn1	inconclusive: 10%
COC(=O)c1nnn(CC(=O)Nc2ccccc2)c1N	inconclusive: 11%
COc1ccc(S(=O)(=O)N2C[C@@H]3C[C@H](C2)c2c(NC(=O)c4cccnc4)ccc(=O)n2C3)cc1	inconclusive: 13%
CCOC(=O)CN(Cc1ccccc1F)S(=O)(=O)c1ccc(Br)cc1	inactive
O=C(NCCSc1c[nH]c2ccccc12)c1ccc2c(c1)OCO2	inconclusive: 15%
CCc1nc(CN2CCc3onc(-c4cccc5ccccc45)c3C2)c(C)[nH]1	inactive
O=C(NC1CCCS1(=O)=O)c1ccc(Br)o1 (stereo not given)	inconclusive: 11%
CCc1ccccc1NC(=O)c1ccc(-c2ccccc2)cc1	inactive
Cc1ccc(S(=O)(=O)NC[C@H]2O[C@@H](CO)[C@@H](O)[C@H]2N2CCCC2)cc1	inconclusive: 17%
COC(=O)c1ccc2c(c1)C1C=CCC1C(c1ccc(Br)cc1)N2 (stereo not given)	inconclusive: 17%
COc1cccc(CN2CCC(O)(c3ccccc3C)C2)c1O (stereo not given)	inconclusive: 12%
CC(C)Nc1nc(Cl)nc(N2CCSCC2)n1	inconclusive: 13%
CCOc1ccnc(NCCN2CCCOC2=O)n1	inactive
COc1cccc(CC(C2CCN(C(=O)[C@H]3C[C@@H]4C=C[C@H]3C4)CC2)N(C)C(=O)c2ccco2)c1 (stereo not given in full)	inconclusive: 14%

SMILES	inhibition
CN(Cc1ccccc1CN1CCCC1)C(=O)c1c[nH]c(=O)[nH]1	inconclusive: 16%
Cc1cccnc1CN1CCN(CC(C)(C)CN2CCOCC2)CC1	inconclusive: 13%
CCc1cccc(C)c1NC(=O)c1ccc(C(=O)Nc2c(C)cccc2CC)cc1	inactive
O=C(Nc1nnc(-c2ccccc2Cl)s1)c1ccccc1F	inconclusive: 28%
Cc1ccc2nc(-c3ccc(Cl)cc3)cc(C#N)c2c1	inactive
O=C1CC(c2cccs2)CC2=C1C(c1ccc(Cl)c(Cl)c1)Nc1ccccc1N2 (stereo not given)	inconclusive: 25%
COc1ccc2nc(N=Cc3nc(-c4ccc(Cl)cc4)oc3O)sc2c1	inconclusive: 17%
O=C(CSC1=NC(=O)C(c2ccccc2)C(=O)N1)Nc1ccc(Cl)cn1 (stereo not given)	inactive
COc1cc(NC(=O)CNCc2cc(F)ccc2F)ccc1Cl	inconclusive: 24%
CC(=O)c1ccc2c(c1)c1ccccc1n2C(C)C	inactive
O=C(NC1CCS(=O)(=O)C1)c1ccccc1NC(=O)c1nsc2ccccc12 (stereo not given)	inconclusive: 13%
CC(C)(O)C#Cc1ccc(C(=O)Nc2cnc3n2CCCC3)o1	inconclusive: 27%
COc1ccc2cc(C3CN(C(=O)c4cc(N)n[nH]4)CCO3)ccc2c1 (stereo not given)	inactive
O=C(O)CCC(=O)N[C@H]1CO[C@H]2[C@@H]1OC[C@@H]2n1nnnc1Oc1ccc(-n2cncn2)cc1	inconclusive: 12%
CC(C)(C)c1ccc(S(=O)(=O)N2CCCC2C(=O)N2CCOCC2)cc1 (stereo not given)	inconclusive: 13%
COc1ccc2c(c1)CCc1c(C(=O)Nc3ccc(F)cc3F)noc1-2	inactive
CCOC(=O)C1(Cc2ccc(Cl)cc2)CCN(C(=O)Nc2cccc(C)c2C)CC1	inconclusive: 10%
O=C(Nc1ccccc1[N+](=O)[O-])c1cccc(S(=O)(=O)N2CCOCC2)c1	inconclusive: 10%
O=C(CN(c1ccccc1)S(=O)(=O)c1ccccc1[N+](=O)[O-])N1CCc2ccccc2C1	inconclusive: 18%
COc1ccc(-c2cccc3ccnn23)c(C)c1	inactive
COc1ccc(OCCCC(=O)Nc2ccc(OC)cc2OC)cc1	inconclusive: 10%
Cn1c(-c2ccc([N+](=O)[O-])cc2)nc2ccccc21	inconclusive: 11%
COc1ccc(F)c(CN2CCC3(CC2)CNC(=O)C3)c1Cl	inconclusive: 11%
Nc1ccnn1-c1ccccc1	inactive

SMILES	inhibition
CCOc1ccc(N=Cc2cccc([N+](=O)[O-])c2O)cc1	inconclusive: 14%
CCC(CC)n1nc(C)cc1NC(=O)CN1C(=O)COc2ccc(C)cc21	inconclusive: 19%
CCCCS(=O)(=O)N1C[C@H](N)C[C@H]1C(=O)NC	inconclusive: 16%
O=c1[nH]c(/C=C\c2ccccc2Cl)nc2ccccc12	active: 44%
CC1=C(C(=O)Nc2c(F)cccc2F)C(c2ccccc2)C2=C(CC(c3ccccc3)CC2=O)N1 (stereo not given)	inconclusive: 11%
COc1ccc(-c2c3c(=O)n(C)c(=O)n(C)c3cn2-c2cccc(C)c2)cc1	inconclusive: 16%
COc1ccccc1C1CC(=O)N2CN(c3ccc(Br)cc3)CSC2=C1C#N (stereo not given)	inactive
Cc1nc(CN(C)Cc2nc3ccccc3n2CC(C)C)no1	inactive
CN1C[C@@H](NC(=O)Nc2ccc(Cl)cc2)C[C@H]1c1nc(-c2cncnc2)no1	inconclusive: 25%
Cc1ccc(-n2nc3ccc(NC(=O)c4ccc5c(c4)OCCO5)cc3n2)cc1Cl	active: 34%
O=C(Cn1c(=O)n(-c2ccc(F)cc2F)c(=O)c2sccc21)NCCC1=CCCCC1	inactive
CCOc1ccc(C(=O)Nc2ccc(S(=O)(=O)Nc3nnc(CC)s3)cc2)cc1	inconclusive: 17%
Cc1ccc(-c2nccs2)c(-n2cccn2)c1	inactive
CNC(=O)c1ccc(Cn2c(=O)c3cc(OC)c(OC)cc3n(CC(=O)Nc3ccccc3)c2=O)cc1	inconclusive: 12%
COC(=O)CN1CCN(C(=O)c2cnc(-c3ccccc3)nc2)C(C)C1=O (stereo not given)	inconclusive: 10%
O=C(CCN1C(=O)S/C(=C\c2ccc(Cl)cc2)C1=O)N1CCOCC1	inconclusive: 15%
Cc1ccnc(NC(=O)COc2cc(C)c(Cl)c(C)c2)c1	inactive
O=C(Nc1ccccc1)c1cc(S(=O)(=O)N2CCSCC2)ccc1Cl	inconclusive: 11%
O=C1NC(=Nc2ccccc2Cl)S/C1=C/c1ccc2c(c1)OCO2	inconclusive: 13%
O=[N+]([O-])c1ccc(CSc2nc3ccccc3o2)cc1	active: 35%
Cc1cnccc1CN(C)Cc1cn(C)c2ccccc12	inactive
COc1cc(/C=C2\SC(=N)N(c3ccc(Br)cc3)C2=O)ccc1OCC#N	inconclusive: 15%
CCC(C)C(=O)O[C@@H]1[C@H](OC(C)=O)c2c(ccc3ccc(=O)oc23)OC1(C)C (stereo not given in full)	inconclusive: 15%

Some values from the results shown.
`CCOc1ccc(C(=O)Nc2ccc(S(=O)(=O)Nc3nnc(CC)s3)cc2)cc1` | inhibition: inconclusive: 17%
`CNC(=O)c1ccc(Cn2c(=O)c3cc(OC)c(OC)cc3n(CC(=O)Nc3ccccc3)c2=O)cc1` | inhibition: inconclusive: 12%
`Cc1ccc(-c2nccs2)c(-n2cccn2)c1` | inhibition: inactive
`CCC(C)C(=O)O[C@@H]1[C@H](OC(C)=O)c2c(ccc3ccc(=O)oc23)OC1(C)C` (stereo not given in full) | inhibition: inconclusive: 15%
